# Measured values taken from the supplement of paper PMC12067093, “Discovery and optimisation of a covalent ligand for TRIM25 and its application to targeted protein ubiquitination” (Chemical Science, 2025).
# Chains of the proteins cited; added tags and fusions are not shown. Lines headed by an entry give the natural chain unless they say otherwise; changes in a name come on top.
# UniProt Q99986: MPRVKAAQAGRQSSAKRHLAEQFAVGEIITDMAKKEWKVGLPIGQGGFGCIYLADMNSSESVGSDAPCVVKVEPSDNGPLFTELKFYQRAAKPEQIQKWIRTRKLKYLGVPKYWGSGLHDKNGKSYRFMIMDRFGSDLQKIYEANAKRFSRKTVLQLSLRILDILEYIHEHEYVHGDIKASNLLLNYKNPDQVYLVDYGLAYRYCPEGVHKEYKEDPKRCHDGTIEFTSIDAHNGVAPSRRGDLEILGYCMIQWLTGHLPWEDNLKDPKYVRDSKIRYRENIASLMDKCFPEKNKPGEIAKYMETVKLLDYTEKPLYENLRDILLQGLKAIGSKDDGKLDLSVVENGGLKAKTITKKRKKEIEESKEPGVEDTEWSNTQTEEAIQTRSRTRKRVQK
# UniProt P15498: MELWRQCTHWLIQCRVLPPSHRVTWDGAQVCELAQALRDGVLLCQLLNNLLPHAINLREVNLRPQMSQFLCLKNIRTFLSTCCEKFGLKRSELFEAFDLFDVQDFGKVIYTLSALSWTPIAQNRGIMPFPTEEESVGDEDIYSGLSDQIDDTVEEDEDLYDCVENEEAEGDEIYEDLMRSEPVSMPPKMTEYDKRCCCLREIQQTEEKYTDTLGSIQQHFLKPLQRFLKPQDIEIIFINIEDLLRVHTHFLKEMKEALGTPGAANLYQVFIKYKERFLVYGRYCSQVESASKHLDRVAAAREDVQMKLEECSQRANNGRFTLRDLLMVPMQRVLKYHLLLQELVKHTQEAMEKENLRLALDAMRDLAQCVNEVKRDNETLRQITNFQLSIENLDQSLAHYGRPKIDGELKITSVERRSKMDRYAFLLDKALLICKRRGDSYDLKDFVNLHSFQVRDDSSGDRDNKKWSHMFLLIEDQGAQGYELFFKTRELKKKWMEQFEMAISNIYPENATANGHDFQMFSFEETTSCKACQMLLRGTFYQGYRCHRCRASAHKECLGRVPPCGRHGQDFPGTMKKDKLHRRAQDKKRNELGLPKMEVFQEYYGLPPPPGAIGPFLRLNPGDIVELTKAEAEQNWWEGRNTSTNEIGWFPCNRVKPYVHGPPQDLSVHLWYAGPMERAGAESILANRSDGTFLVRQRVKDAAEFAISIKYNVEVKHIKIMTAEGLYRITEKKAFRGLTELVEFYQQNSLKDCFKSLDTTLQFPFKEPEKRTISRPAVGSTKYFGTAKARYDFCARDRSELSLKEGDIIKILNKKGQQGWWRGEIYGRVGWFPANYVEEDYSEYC
# UniProt Q9P253: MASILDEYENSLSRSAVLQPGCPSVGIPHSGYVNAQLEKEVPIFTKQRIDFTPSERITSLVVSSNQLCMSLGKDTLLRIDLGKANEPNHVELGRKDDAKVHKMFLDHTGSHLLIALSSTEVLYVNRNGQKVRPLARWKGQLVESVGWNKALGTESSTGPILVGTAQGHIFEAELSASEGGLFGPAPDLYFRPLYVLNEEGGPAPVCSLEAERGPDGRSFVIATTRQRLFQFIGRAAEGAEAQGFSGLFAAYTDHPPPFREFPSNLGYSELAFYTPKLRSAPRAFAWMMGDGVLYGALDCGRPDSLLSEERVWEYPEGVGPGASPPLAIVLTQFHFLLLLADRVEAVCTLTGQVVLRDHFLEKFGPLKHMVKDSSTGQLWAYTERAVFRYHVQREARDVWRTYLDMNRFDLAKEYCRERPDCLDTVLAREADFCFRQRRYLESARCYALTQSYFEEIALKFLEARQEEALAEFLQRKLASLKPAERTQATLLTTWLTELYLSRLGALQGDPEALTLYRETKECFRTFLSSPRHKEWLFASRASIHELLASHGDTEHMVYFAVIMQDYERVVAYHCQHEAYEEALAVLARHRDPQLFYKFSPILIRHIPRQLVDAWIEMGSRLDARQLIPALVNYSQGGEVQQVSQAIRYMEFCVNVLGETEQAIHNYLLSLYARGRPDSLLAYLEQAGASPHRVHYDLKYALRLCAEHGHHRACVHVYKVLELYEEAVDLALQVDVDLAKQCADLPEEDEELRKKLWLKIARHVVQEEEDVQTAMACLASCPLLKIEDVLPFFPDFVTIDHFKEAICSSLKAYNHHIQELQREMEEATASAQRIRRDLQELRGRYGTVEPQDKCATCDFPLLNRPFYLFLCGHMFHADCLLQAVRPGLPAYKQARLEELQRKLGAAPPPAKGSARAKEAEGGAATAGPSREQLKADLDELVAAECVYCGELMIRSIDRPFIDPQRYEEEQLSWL
# UniProt P23381: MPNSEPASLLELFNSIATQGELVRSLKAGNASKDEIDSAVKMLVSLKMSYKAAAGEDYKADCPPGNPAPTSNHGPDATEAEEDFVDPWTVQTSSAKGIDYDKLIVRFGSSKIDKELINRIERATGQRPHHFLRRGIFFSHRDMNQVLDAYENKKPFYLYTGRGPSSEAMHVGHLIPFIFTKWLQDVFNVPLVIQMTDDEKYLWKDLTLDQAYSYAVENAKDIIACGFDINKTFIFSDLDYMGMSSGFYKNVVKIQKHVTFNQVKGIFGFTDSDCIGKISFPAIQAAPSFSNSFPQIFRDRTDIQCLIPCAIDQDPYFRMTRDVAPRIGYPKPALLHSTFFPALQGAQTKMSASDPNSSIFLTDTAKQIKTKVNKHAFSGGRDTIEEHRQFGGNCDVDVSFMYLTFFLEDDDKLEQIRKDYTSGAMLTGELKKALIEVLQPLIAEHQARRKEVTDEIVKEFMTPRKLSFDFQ
# UniProt P46939: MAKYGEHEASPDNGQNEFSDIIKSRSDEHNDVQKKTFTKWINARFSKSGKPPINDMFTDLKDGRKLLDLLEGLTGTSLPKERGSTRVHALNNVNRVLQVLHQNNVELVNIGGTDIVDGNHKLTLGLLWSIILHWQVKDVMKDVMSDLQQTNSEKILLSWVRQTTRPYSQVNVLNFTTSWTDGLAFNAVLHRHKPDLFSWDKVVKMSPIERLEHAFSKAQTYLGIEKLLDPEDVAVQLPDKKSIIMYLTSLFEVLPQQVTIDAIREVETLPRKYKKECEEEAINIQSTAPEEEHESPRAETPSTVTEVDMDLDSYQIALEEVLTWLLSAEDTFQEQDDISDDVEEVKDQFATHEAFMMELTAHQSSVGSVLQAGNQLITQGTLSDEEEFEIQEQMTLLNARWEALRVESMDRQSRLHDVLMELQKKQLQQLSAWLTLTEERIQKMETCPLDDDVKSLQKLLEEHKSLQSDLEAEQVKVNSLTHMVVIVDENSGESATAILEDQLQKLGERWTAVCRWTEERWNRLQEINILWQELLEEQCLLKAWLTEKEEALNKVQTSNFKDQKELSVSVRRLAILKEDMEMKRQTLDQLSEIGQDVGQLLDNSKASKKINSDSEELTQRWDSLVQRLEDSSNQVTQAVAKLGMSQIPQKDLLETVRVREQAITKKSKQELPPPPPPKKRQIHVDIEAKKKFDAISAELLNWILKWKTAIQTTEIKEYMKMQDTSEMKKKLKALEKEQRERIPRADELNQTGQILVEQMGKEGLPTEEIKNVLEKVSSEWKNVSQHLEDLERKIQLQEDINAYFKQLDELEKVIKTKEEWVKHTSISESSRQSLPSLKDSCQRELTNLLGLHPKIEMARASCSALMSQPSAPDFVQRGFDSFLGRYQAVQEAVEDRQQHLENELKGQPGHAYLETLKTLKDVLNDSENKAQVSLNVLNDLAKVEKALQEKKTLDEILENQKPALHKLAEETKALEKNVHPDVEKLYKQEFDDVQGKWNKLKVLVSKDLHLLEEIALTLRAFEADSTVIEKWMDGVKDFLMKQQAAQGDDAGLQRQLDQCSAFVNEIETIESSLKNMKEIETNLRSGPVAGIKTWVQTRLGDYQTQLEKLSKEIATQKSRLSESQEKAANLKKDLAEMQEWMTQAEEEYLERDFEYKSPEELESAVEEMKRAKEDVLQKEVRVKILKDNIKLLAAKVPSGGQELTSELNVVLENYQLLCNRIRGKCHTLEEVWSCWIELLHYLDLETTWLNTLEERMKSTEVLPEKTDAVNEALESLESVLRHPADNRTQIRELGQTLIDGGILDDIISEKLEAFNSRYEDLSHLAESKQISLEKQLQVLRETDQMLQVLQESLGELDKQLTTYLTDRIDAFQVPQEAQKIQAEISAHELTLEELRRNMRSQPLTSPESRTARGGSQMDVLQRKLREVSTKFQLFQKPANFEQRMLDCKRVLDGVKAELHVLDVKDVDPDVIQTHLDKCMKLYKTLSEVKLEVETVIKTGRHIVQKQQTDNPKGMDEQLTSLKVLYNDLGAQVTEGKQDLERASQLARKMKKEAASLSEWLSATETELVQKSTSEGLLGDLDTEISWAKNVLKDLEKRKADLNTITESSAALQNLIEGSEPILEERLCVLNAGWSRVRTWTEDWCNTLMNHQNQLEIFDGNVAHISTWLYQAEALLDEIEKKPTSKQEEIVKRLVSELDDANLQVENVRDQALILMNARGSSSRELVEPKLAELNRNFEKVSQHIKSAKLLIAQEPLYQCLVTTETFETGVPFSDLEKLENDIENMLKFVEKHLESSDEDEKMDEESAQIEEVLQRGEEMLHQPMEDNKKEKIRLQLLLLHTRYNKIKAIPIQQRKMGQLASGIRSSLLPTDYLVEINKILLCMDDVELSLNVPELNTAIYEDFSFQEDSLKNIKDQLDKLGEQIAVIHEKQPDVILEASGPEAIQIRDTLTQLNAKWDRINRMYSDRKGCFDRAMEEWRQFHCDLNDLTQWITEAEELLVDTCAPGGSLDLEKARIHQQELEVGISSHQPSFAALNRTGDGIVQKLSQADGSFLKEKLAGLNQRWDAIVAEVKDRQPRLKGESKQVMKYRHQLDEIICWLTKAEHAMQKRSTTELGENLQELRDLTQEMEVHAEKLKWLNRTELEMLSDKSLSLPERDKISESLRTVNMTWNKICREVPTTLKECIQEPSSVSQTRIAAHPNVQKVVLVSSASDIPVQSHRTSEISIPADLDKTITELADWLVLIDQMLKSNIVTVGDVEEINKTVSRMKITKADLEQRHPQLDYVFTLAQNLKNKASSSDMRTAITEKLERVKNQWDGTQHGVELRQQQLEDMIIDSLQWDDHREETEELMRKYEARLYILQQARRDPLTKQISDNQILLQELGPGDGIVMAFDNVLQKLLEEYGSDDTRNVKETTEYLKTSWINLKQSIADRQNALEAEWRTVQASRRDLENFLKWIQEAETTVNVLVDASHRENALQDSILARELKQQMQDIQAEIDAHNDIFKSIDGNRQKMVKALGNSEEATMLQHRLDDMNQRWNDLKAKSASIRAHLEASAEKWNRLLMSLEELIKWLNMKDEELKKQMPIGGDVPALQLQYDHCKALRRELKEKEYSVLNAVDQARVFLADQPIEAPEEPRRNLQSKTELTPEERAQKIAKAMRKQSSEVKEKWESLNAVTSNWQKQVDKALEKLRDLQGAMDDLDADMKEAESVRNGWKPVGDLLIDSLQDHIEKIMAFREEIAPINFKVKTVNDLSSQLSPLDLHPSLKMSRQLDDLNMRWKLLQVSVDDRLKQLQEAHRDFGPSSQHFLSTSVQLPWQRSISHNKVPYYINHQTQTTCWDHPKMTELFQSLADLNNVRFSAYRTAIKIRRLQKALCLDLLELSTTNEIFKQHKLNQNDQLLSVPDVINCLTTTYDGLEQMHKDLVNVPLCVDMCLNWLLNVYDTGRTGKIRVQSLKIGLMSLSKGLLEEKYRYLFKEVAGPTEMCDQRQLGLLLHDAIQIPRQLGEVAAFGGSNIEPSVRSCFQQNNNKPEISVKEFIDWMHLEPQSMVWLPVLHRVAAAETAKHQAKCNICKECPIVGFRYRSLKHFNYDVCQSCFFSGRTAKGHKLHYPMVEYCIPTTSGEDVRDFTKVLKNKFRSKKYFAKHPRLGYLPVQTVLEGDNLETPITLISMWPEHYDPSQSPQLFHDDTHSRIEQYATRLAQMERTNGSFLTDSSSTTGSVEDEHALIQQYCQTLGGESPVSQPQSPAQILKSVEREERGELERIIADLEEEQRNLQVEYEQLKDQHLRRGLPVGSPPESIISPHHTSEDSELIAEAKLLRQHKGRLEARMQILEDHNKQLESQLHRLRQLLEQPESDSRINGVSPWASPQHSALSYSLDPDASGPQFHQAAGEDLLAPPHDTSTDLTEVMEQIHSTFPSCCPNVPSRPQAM
# UniProt Q9NP79: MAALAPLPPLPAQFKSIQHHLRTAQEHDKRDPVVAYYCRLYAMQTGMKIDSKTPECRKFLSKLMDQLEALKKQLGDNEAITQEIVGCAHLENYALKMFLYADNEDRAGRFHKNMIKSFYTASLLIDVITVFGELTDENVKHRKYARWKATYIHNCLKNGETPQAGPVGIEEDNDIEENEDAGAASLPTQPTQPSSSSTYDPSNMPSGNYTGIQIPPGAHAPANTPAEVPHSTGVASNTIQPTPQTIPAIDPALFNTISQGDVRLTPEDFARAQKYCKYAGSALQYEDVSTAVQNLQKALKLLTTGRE
# Some of the results follow.
# Compound: Cc1cc(ccc1-c1ccccc1)C(=O)N1CCCN(CC1)C(=O)CCl [compound 10]
# Assay: probe-labelled cysteine peptide fold change vs DMSO (competition) (log2 fold change); higher = less target engagement (more negative = stronger competition)
# Conditions: THP-1, incubation time: 4 h
# 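Note: competitive profiling in live THP-1 cells: cysteine peptides tagged with an iodoacetamide desthiobiotin (IA-DTB) probe, intensity after compound treatment relative to DMSO-treated cells.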
Target,probe-labelled cysteine peptide fold change (10 µM),probe-labelled cysteine peptide fold change (50 µM)
UTP18_Q9Y5J1_302_ACFSANGEEVLATSTHSK (UniProt Q9Y5J1),0.0849,0.143
VLDLR_P98155_108_CDGDPDCEDGSDESPEQCHMR (UniProt P98155),-0.0653,-0.558
UVRAG_Q9P2Y5_71_NGHQLLDTYFTLHLCSTEK (UniProt Q9P2Y5),0.0232,0.0171
UTP15_Q8TED0_85_DTAYCATFR (UniProt Q8TED0),0.123,0.121
VLDLR_P98155_33_CEPSQFQCTNGR (UniProt P98155),-0.258,-0.679
UTP6_Q9NYH9_566_EELNHPLGRPENCGQIYWR (UniProt Q9NYH9),0.0173,0.186
UTP23_Q9BRU9_35_NNFGVREPYQILLDGTFCQAALR (UniProt Q9BRU9),-0.0779,-0.373
VPS39_Q96JC1_235_VAVGQDDLTVVLNEEGICTQK (UniProt Q96JC1),-0.217,-0.31
VARS_P26640_479_LVNWSCTLNSAISDIEVDK (UniProt P26640),0.0795,0.514
VRK1_Q99986_205_YCPEGVHK (UniProt Q99986),-0.177,-0.0561
VPS16_Q9H269_408_CFLDRFPPDSFVHMCQDLR (UniProt Q9H269),-0.0753,0.0447
VPS13B_Q7Z7G8_868_CASGTMGSIK (UniProt Q7Z7G8),-0.0934,-0.0648
VPS53_Q5VIR6_321_IAVEFCHVTR (UniProt Q5VIR6),0.0427,0.134
USP9Y_O00507_148_CIINNTHR (UniProt O00507),0.027,0.385
VPS13C_Q709C8_2276_GIEHSLIEENCGVVVESIQVTLECGLGHR (UniProt Q709C8),-0.227,-0.117
VPS13C_Q709C8_3723_ACNAIEDAQSTR (UniProt Q709C8),-0.217,0.0523
VRK1_Q99986_220_RCHDGTIEFTSIDAHNGVAPSR (UniProt Q99986),-0.347,0.0818
VPS4A_Q9UN37_403_LLEPVVCMSDMLR (UniProt Q9UN37),0.055,-0.16
VCPIP1_Q96JH7_160_DMNQGELFDCALLGDR (UniProt Q96JH7),-0.0628,-0.29
VPS45_Q9NRW7_359_NLLEVSEVEQELACQNDHSSALQNIKR (UniProt Q9NRW7),-0.165,-0.434
VAV1_P15498_794_YDFCAR (UniProt P15498),-0.169,0.781

Target,probe-labelled cysteine peptide fold change (10 µM),probe-labelled cysteine peptide fold change (50 µM)
VCP_P55072_691_MTNGFSGADLTEICQR (UniProt P55072),0.351,-0.0625
VAV2_P52735_44_DGVLLCQLLHNLSPGSIDLK (UniProt P52735),-0.151,0.39
WAPL_Q7Z5K2_906_AEDSICLADSKPLPHQNVTNHVGK (UniProt Q7Z5K2),-0.226,-0.229
VPS18_Q9P253_741_QCADLPEEDEELRK (UniProt Q9P253),-0.238,0.0222
VPS51_Q9UID3_226_AIQDDCQVITAR (UniProt Q9UID3),-0.0982,-0.205
VCPIP1_Q96JH7_940_HCTFPHLPGK (UniProt Q96JH7),-0.0827,-0.121
VCPIP1_Q96JH7_219_SQECLIPVHVDGDGHCLVHAVSR (UniProt Q96JH7),-2.4,< -5
VARS2_Q5ST30_549_QLWWGHQIPAYLVVEDHAQGEEDCWVVGR (UniProt Q5ST30),0.149,0.141
VAPA_Q9P0L0_128_CVFEMPNENDKLNDMEPSK (UniProt Q9P0L0),-0.195,-0.177
WARS_P23381_225_DIIACGFDINK (UniProt P23381),0.195,0.132
USP9Y_O00507_1735_ICQGCPHRYECEESFTTLNVDIR (UniProt O00507),0.126,-0.0682
VPS54_Q9P1Q0_653_LMETFILDTEQICGR (UniProt Q9P1Q0),-0.0143,0.122
UTP23_Q9BRU9_207_ISGPNPLSCLK (UniProt Q9BRU9),-0.0524,-0.323
VARS_P26640_381_MRGETTLWNPGCDHAGIATQVVVEK (UniProt P26640),-0.0626,-0.0755
WAC_Q9BTA9_15_LSDGCHDR (UniProt Q9BTA9),0.00753,-0.206
UTP20_O75691_2594_IKEDLEEQEALEDGVACADEK (UniProt O75691),-0.135,0.256
VPS13D_Q5THJ4_3722_LTCGLHGLVVQAK (UniProt Q5THJ4),-0.0396,0.0236
UTP20_O75691_616_LALCGCK (UniProt O75691),-0.00945,-0.0191
VPS8_Q8N3P4_512_QDCLTEALALAWSFHEGK (UniProt Q8N3P4),0.0465,0.27
UTRN_P46939_447_METCPLDDDVK (UniProt P46939),-0.0867,-0.345
VAV3_Q9UKW4_7_QCAQWLIHCK (UniProt Q9UKW4),0.0775,0.261

# A run of entries from the list above, for reference:
Target,probe-labelled cysteine peptide fold change (10 µM),probe-labelled cysteine peptide fold change (50 µM)
VPS18_Q9P253_741_QCADLPEEDEELRK (UniProt Q9P253),-0.238,0.0222
VPS51_Q9UID3_226_AIQDDCQVITAR (UniProt Q9UID3),-0.0982,-0.205

# (cont.)

Target,probe-labelled cysteine peptide fold change (10 µM),probe-labelled cysteine peptide fold change (50 µM)
VCPIP1_Q96JH7_469+472_CLLCGALSELHVPPEWLAPGGK (UniProt Q96JH7),-0.12,0.233
VAV1_P15498_652_NTSTNEIGWFPCNR (UniProt P15498),-0.108,-0.274
USP9X_Q93008_471_LAWDFSPEQLDHLFDCFK (UniProt Q93008),0.316,0.635
VCPIP1_Q96JH7_538_DVLVPDYGMSNLTACNWCHGTSVR (UniProt Q96JH7),0.101,-0.297
WAPL_Q7Z5K2_891_ALQHCEELIQQYNR (UniProt Q7Z5K2),0.534,0.146
VEZF1_Q14119_319_THGQSQSINCNTCK (UniProt Q14119),-0.0855,-0.673
VPS39_Q96JC1_358_NLYAFNLFCQK (UniProt Q96JC1),0.255,0.239
VPS36_Q86VN1_271_GGIMSLTEVYCLVNR (UniProt Q86VN1),0.111,0.204
VCL_P18206_422_IAELCDDPKERDDILR (UniProt P18206),0.179,-0.0967
USP9Y_O00507_1729_ICQGCPHRYECEESFTTLNVDIR (UniProt O00507),-0.0335,-0.101
UTP18_Q9Y5J1_507_LVHLPSCTVFSNFPVIK (UniProt Q9Y5J1),0.0471,-0.0312
VPS52_Q8N1B4_119_DYIQESENIASLHNQITACDAVLER (UniProt Q8N1B4),0.338,0.121
VLDLR_P98155_251_CPASEIQCGSGECIHK (UniProt P98155),-0.12,-0.248
VPS18_Q9P253_947_ADLDELVAAECVYCGELMIR (UniProt Q9P253),-0.147,0.437
VCL_P18206_545_CDRVDQLTAQLADLAAR (UniProt P18206),0.181,0.164
VAV1_P15498_31_VTWDGAQVCELAQALR (UniProt P15498),-0.361,0.203
VAT1L_Q9HCJ6_78_ACGLNFIDLMVR (UniProt Q9HCJ6),0.206,0.0683
VAMP7_P51809_21_HAWCGGNFLEVTEQILAK (UniProt P51809),-0.0461,0.185
VRK1_Q99986_220_CHDGTIEFTSIDAHNGVAPSR (UniProt Q99986),-0.205,0.00959
VPS53_Q5VIR6-4_685_CKPISMVGAEQLLLDTHSLK (UniProt Q5VIR6),-0.152,0.177
VASP_P50552_7_SETVICSSR (UniProt P50552),0.589,0.839

Target,probe-labelled cysteine peptide fold change (10 µM),probe-labelled cysteine peptide fold change (50 µM)
VAPA_Q9P0L0_128_CVFEMPNENDK (UniProt Q9P0L0),-0.217,-0.121
VLDLR_P98155_344_VCNQEQDCR (UniProt P98155),0.0301,-0.187
VPS72_Q15906_163_GPHCERPLTQEELLR (UniProt Q15906),0.133,-0.138
VLDLR_P98155_127_IHEISCGAHSTQCIPVSWR (UniProt P98155),-0.0912,-0.0243
VPS8_Q8N3P4_564_KCPDQGK (UniProt Q8N3P4),0.0415,0.163
WASHC4_Q2M389_1031_NFYIIVPPLTLNFVEHSISCK (UniProt Q2M389),0.0143,0.398
VAT1L_Q9HCJ6_253+255_ISAEGVDIVLDCLCGDNTGK (UniProt Q9HCJ6),0.388,-0.997
VAPB_O95292_121_CVFELPAENDKPHDVEINK (UniProt O95292),-0.285,-0.0606
VCPIP1_Q96JH7_127_VMGLSNYHCK (UniProt Q96JH7),-0.166,-0.653
WARS_P23381_305+309_TDIQCLIPCAIDQDPYFR (UniProt P23381),-0.0548,-0.0914
VPS33B_Q9H267_259_CGSVDFGPEVTSSDK (UniProt Q9H267),0.169,0.293
VTA1_Q9NP79_155_ATYIHNCLK (UniProt Q9NP79),0.059,0.0628
VPS4B_O75351_240_ENKPSIIFIDEIDSLCGSR (UniProt O75351),-0.193,0.0604
VARS_P26640_340_GVFMMCIPPPNVTGSLHLGHALTNAIQDSLTR (UniProt P26640),0.429,0.379
VAT1_Q99536_86_ACGLNFADLMAR (UniProt Q99536),-0.0795,-0.11
VTA1_Q9NP79_87_KQLGDNEAITQEIVGCAHLENYALK (UniProt Q9NP79),0.125,-0.456
UTRN_P46939_1059_QLDQCSAFVNEIETIESSLK (UniProt P46939),0.274,-0.00803
VPS13A_Q96RL7_1608_ACPFLPVK (UniProt Q96RL7),-0.178,-0.0723

# Quoted from the listing.
# VCPIP1_Q96JH7_160_DMNQGELFDCALLGDR (UniProt Q96JH7) | probe-labelled cysteine peptide fold change (50 µM): -0.29
# VPS16_Q9H269_408_CFLDRFPPDSFVHMCQDLR (UniProt Q9H269) | probe-labelled cysteine peptide fold change (50 µM): 0.0447
